Values quoted from earlier work as cited in US20090028935A1, “CARVEDILOL FORMS, COMPOSITIONS, AND METHODS OF PREPARATION THEREOF” (priority 2006, published 2009).
The name of at least one read-out is uncertain.

Conditions: lower gastrointestinal tract; background statement

COc1ccccc1OCCNCC(O)COc1cccc2[nH]c3ccccc3c12 (racemic) [Carvedilol, (±)-1-(carbazol-4-yloxy)-3-[[2-(o-methoxyphenoxy)ethyl]amino]-2-propanol]
permeability: reduced permeability in the lower gastrointestinal tract
